Laboratory results reported in the supplement of paper PMC3334620.
In all, about 33,000 sequences were measured (“E-score (-0.5 to 0.5)”: median about -8e-05, highest 2% from about 0.23 on). This is one part of the list.

Target: T1, Nrg2 (UniProt P38082)
T1 sequence: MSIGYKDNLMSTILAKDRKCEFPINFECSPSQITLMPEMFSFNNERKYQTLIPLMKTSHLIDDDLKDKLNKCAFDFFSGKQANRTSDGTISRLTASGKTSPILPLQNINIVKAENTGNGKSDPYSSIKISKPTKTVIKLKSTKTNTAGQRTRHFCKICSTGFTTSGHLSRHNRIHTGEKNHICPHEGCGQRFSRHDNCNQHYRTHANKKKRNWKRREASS
Test: PBM E-score (8-mer binding enrichment) (E-score (-0.5 to 0.5)); higher = stronger / more preferred TF binding
Conditions: protein concentration: 100 nM; construct: GST-full length
Outline: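 Bound GST-tagged yeast transcription factors, applied at about 100-200 nM to double-stranded universal all-10-mer Agilent arrays, were detected with fluorescent anti-GST. Scans were normalised with masliner. A modified Wilcoxon-Mann-Whitney statistic, the E-score, was assigned to each ungapped eight-base word pooled with its reverse complement by the Universal PBM Analysis Suite.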

Sequence	PBM E-score
AGATACCA	0.197
CCATGTAA	0.0797
AGCGGAAA	-0.00794
ACTCTCAT	0.0714
ATACCTTA	0.0349
TAAGGCAA	0.0499
AGTGTTAG	0.167
TCAGGCCA	-0.064
CCACGGCA	-0.05
AGTCATTG	0.0148
CTCCAGGC	-0.0994
CTTGCGGC	0.00859
GGCAGCAA	0.106
AATCCCGG	0.0194
GCGAACGA	0.15
CTTCTGCA	0.00773
GGCCGGCC	0.0877
ATGCGACA	0.0603
ACACCCTC	-0.116
ACAATTTA	0.157
AACGCACG	0.189
TCACACAA	0.137
GAATCTGA	-0.0632
AGCTTGCA	-0.016
AGTCTTAC	-0.162

Sequence	PBM E-score
ACGTCCGA	-0.06
CACGAGCC	-0.205
AAGTTTGA	0.0835
AATCGTGT	0.164
AAGATGTC	-0.12
AAGCACAT	0.135
CTTTCCAA	-0.0143
AGACGTCA	-0.0442
AACTCGGA	0.13
CATGGTGG	-0.144
GCAGACCC	-0.0364
CGTATTCC	-0.11
AATCTTAC	0.0925
AGTCCATA	0.0684
CGGCAGCC	-0.103
ACTCGGCT	0.00912
GATCCGAC	-0.0481
ATAAACAA	0.193
AGTTTGTG	-0.0679
CTCATGAA	0.112
AGGGATAT	0.153
CTCCTTCA	-0.299
CAGGGGCA	0.086
CCCATGGC	-0.123
GTCAAACA	-0.117

Sequence	PBM E-score
AATTTGCA	0.119
GCGTAACA	0.0647
CATGTGCC	0.00954
CCGTATCC	-0.18
GTCCCGTA	-0.111
ATCCACGG	0.0972
CACACTAC	0.0365
AATTTAAC	0.0445
GTAGCATA	0.0751
TTAAAAAA	0.0402
CGAGCGAG	0.249
GTAAGGAA	-0.0395
CCGCTGGA	-0.102
CGTAATAC	0.128
ACCCCGTG	0.178
ATTATTCG	0.295
CTAATAAG	-0.0914
ACCTGCAT	0.00088
AGGCAGTC	-0.0935
GGTCCGCA	0.126
ATCCTCAT	-0.0645
CCAACGTC	-0.093
CCTTCTCC	-0.135
AACGAAGC	-0.0149
CGACACGA	0.22

Shown bar-delimited: entries from further up
Sequence | PBM E-score
ATGCGACA | 0.0603
ACACCCTC | -0.116
ACAATTTA | 0.157
AACGCACG | 0.189
TCACACAA | 0.137
GAATCTGA | -0.0632
AGCTTGCA | -0.016
AGTCTTAC | -0.162
ACGTCCGA | -0.06
CACGAGCC | -0.205
AAGTTTGA | 0.0835
AATCGTGT | 0.164
AAGATGTC | -0.12
AAGCACAT | 0.135
CTTTCCAA | -0.0143
AGACGTCA | -0.0442
AACTCGGA | 0.13
CATGGTGG | -0.144
GCAGACCC | -0.0364
CGTATTCC | -0.11
AATCTTAC | 0.0925
AGTCCATA | 0.0684
CGGCAGCC | -0.103
ACTCGGCT | 0.00912
GATCCGAC | -0.0481
ATAAACAA | 0.193
AGTTTGTG | -0.0679
CTCATGAA | 0.112
AGGGATAT | 0.153
CTCCTTCA | -0.299
CAGGGGCA | 0.086
CCCATGGC | -0.123
GTCAAACA | -0.117
AATTTGCA | 0.119
GCGTAACA | 0.0647
CATGTGCC | 0.00954
CCGTATCC | -0.18
GTCCCGTA | -0.111
ATCCACGG | 0.0972
CACACTAC | 0.0365
AATTTAAC | 0.0445
GTAGCATA | 0.0751
TTAAAAAA | 0.0402
CGAGCGAG | 0.249
GTAAGGAA | -0.0395

(cont.)

Sequence	PBM E-score
CTCAATTA	0.0644
ACATATTC	0.144
CAGACGGA	-0.0654
ACTAGCAT	-0.0422
AAACCTGT	-0.0112
AGGCGTAA	-0.0597
AAGGCATG	-0.241
CGCATACC	0.152
CAGGTGAG	-0.0713
GGCAATGA	-0.0723
GAGTCGCA	-0.221
AAAGTTTC	0.00759
CTGACTTC	-0.0873
GGCCCCAC	0.00472
CAAGTACA	0.0376
CACGCTGG	-0.0805
CATCAGGG	0.229
AGCAACCG	-0.106
CCGATCCA	-0.0217
AATCGGCC	-0.0612
ACCCTCCA	-0.0737
GGTGATTA	0.146
AACGGGCT	-0.149
ATCAGACA	0.0653
AACTTGCG	0.0217

Sequence	PBM E-score
CTAGTTAC	0.058
GTACATTA	0.00944
AAGGATTA	-0.0123
AGGTTGAC	-0.124
CCAAGTGC	-0.0768
GACCCGGA	-0.13
CATACCCG	-0.0139
GACATGGC	0.0189
ACACGCCC	-0.0738
GGAATCAA	0.0751
GAGTACAA	0.152
ATAGTGAA	0.0592
CCCGAGCA	-0.147
CGGACAAC	0.103
CACATGAC	0.0249
AATAATGT	0.175
CGAACGGA	0.0273
ACAAACAT	0.103
AAAAGCTG	-0.0835
GTAACGCA	0.126
CCAGAGTC	0.00015
CCAGCTAA	-0.0659
ATGTCTTA	0.0139
ACACGGGT	-0.0233
ATTCAGTA	0.0578

Sequence	PBM E-score
ACCTACAC	-0.0926
GTGATGAA	0.0611
GACCGGCA	-0.109
TCCCAAGA	-0.0484
GTAATGCA	-0.0387
GATATTAC	0.111
AGCGGTGC	-0.0279
CGCGTTTC	-0.134
CTAGGCTA	-0.202
AGCGGCAC	-0.138
AATCGTAT	-0.00262
CATGCAGA	0.0612
AGGTGTAG	-0.234
CGAGTAAA	0.16
GGGTAACC	-0.216
AAATATTC	0.127
CCCTTGGC	0.0878
GTCTGGGA	-0.0117
AAATAGAA	-0.0257
GGCACTAC	-0.0245
CGATTTAG	0.192
GTTCGTTA	0.107
GCGCTAAA	0.0235
AAGTCGGT	-0.137
CGGTTGAG	0.132

Sequence	PBM E-score
GGTACTGA	-0.163
ATGTGCGG	0.138
ACTATTCC	-0.0137
GAGTCGCC	-0.265
ACGCCAAC	-0.224
ACCTTGCC	-0.149
TGCTGGAA	-0.0427
GGCCGAGA	0.116
GTTACTGA	0.04
CAACACAG	0.095
GGCGTTGA	-0.088
AACGCGTA	0.1
AGAACACG	0.17
CAACCTAC	0.0371
AAGTAGGG	0.181
AGGGCCGG	-0.0282
AACTGGGC	-0.18
AACTTTTC	0.0712
GGGACGCA	-0.116
AACATCCC	0.0746
ACGAGAAT	0.0822
CAGTATTA	0.244
